Reference: PubChem BioAssay AID488837 (National Center for Advancing Translational Sciences (NCATS), 2010)
About 20 (0.006%) of roughly 330,000 compounds were called active. Inconclusive results, whose numbers are uncertain, are shown with a selection of clear calls. Calls come from the whole dose curve; as a rule, active = well fitted inhibition curve with a large enough effect; inconclusive = small, poorly fitted or top-dose-only effect, or effect the other way; inactive = flat fitted curve, though single readings scatter. Potencies beside an inconclusive call are fits to weak or partial responses and may not hold up.

By UniProt entry, the sequences of proteins in these tests, tags left out. Where a name states a change or a piece, a line headed by the entry shows the natural chain unless it says otherwise.
UniProt O00167: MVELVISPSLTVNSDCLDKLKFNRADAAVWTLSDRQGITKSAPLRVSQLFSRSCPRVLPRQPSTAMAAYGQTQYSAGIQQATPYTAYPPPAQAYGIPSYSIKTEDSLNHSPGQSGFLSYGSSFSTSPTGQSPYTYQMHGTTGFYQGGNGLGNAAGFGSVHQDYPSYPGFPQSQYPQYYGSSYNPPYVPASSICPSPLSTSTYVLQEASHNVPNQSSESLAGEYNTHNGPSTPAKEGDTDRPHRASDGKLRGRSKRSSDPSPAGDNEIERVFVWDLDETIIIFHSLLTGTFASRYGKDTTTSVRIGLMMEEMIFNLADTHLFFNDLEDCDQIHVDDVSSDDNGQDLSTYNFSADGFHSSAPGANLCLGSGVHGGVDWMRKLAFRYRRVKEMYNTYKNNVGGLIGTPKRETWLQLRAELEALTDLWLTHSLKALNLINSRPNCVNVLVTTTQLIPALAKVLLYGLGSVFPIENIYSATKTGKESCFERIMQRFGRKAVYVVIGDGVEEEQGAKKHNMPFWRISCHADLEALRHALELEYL

target: Protein phosphatase EYA2 (Homo sapiens) (UniProt O00167); assay: qHTS Assay for Inhibitors of the Phosphatase Activity of Eya2; conditions: recombinant Eya2, OMFP fluorescence dephosphorylation (OMFP is methylfluorescein phosphate); activity, negative = inhibition: at 76.9 µM (top of the series) unless noted
How it was run: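 Eya2 protein (added as 0.2 uM solution) was preincubated with compound for 10 min at ambient temperature in 50 mM HEPES pH 7.5, 50 mM NaCl, 5 uM MgCl2, 0.05% BSA, 1 mM DTT. OMFP (added at 50 uM) then reacted 10 min; fluorescence read at 485/525 nm.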
% is set by controls: 0 for no effect and ±100 for the full control effect; potency is the fitted concentration of half-maximal effect.

Structure (SMILES)	Potency	activity, negative = inhibition
Cc1cc(=O)n2[nH]cc(-c3ccccc3)c2n1	inconclusive: 100 µM [inhibitor, single point]	
Cc1cc(C)nc(N2C(=O)CC(Cc3ccccc3)C2=O)n1 (centres undefined)	inconclusive: 12.6 µM [inhibitor, single point]	
Cc1noc(C)c1COc1ccccc1C(=O)N(C)Cc1ccc(C(C)(C)C)cc1		inactive: -24.6%
COCCOc1cc(NCc2ccccc2)c2ncn(C(C)C)c2c1	inconclusive: 56.2 µM [inhibitor, single point]	
C=CCn1c(SCC(=O)Nc2cc(C)on2)nc2sc(CC)cc2c1=O		inactive: 13.7%
CC(C)c1ccc(/C=C2\SC(N3CCOCC3)=NC2=O)cc1	inconclusive: 35.5 µM [inhibitor, partial curve]	
COc1ccc(NC(=O)C2CCOC(C)(C)C2)cc1 (centres undefined)	inconclusive: 112 µM [inhibitor, partial curve]	
COC(=O)c1sc(SC)c(-c2ccon2)c1C	inconclusive: 63.1 µM [inhibitor, single point]	
Cc1ccc(S(=O)(=O)N(C)C[C@@H]2Oc3c(NS(C)(=O)=O)cccc3C(=O)N([C@H](C)CO)C[C@@H]2C)cc1		inactive: 1.23%
COc1cc(OC)c(S(=O)(=O)NC(C)C)cc1C(=O)O	inconclusive: 22.4 µM [inhibitor, single point]	
CCN1Cc2c(/C=C/c3ccccc3)nc3ccc(OC)cc3c2N(c2cccc(Cl)c2)C1	inconclusive: 158 µM [inhibitor, partial curve, poor fit]	
CCOc1ccc(NC(=O)C(C)C(Cc2ccc(C)cc2)C(=O)O)cc1 (centres undefined)	inconclusive: 31.6 µM [inhibitor, partial curve, poor fit]	
Cc1ccc(S(=O)(=O)NC(Cc2ccccc2)C(=O)NN)cc1 (centres undefined)		inactive: -10.1%
COc1cc(OC)cc(C(=O)Nc2ccc(C(=O)NCC3CCCO3)cc2)c1 (centres undefined)		inactive: -0.0553%
Cc1ccc2occ(/C=N/NC(=O)[C@@H](N)Cc3ccccc3)c(=O)c2c1	inconclusive: 14.1 µM [inhibitor, partial curve, poor fit]	
COc1ccc(C(=O)CN2CCN(c3ccc(F)cc3)CC2)cc1OC		inactive: 2.45%
O=C(Nc1ccccc1F)c1ccc2c(c1)CCN2S(=O)(=O)c1ccccc1	inconclusive: 70.8 µM [inhibitor, single point]	
O=C(Nc1cccc(S(=O)(=O)Nc2ccc(Cl)cc2)c1)c1ccc[n+]([O-])c1	inconclusive: 158 µM [inhibitor, single point]	
N#C/C(=C\c1ccc(N2CCOCC2)o1)C(=O)NCCc1ccccc1	inconclusive: 50.1 µM [activator, partial curve]	
Cc1ccccc1S(=O)(=O)Cc1ccc(C(=O)NC2CCCCC2C)o1 (centres undefined)	inconclusive: 25.1 µM [inhibitor, single point]	
Cn1cnc2c1c(=O)n(Cc1cccc(Cl)c1)c(=O)n2C	inconclusive: 28.2 µM [inhibitor, single point]	
CC1(C)CC(=O)C(C2C3=C(CC(C)(C)CC3=O)Oc3ccccc32)C(=O)C1 (centres undefined)	inconclusive: 100 µM [inhibitor, single point]	

Structures from the list above that have a COOH group:
Structure (SMILES)	Potency	activity, negative = inhibition
COc1cc(OC)c(S(=O)(=O)NC(C)C)cc1C(=O)O	inconclusive: 22.4 µM [inhibitor, single point]	
CCOc1ccc(NC(=O)C(C)C(Cc2ccc(C)cc2)C(=O)O)cc1 (centres undefined)	inconclusive: 31.6 µM [inhibitor, partial curve, poor fit]	

Going on with the list:

Structure (SMILES)	Potency	activity, negative = inhibition
CC(=O)Nc1cccc(C(=O)OCc2ccc([N+](=O)[O-])cc2)c1	inconclusive: 89.1 µM [inhibitor, single point]	
CC1(C)CC(=O)C(C(c2ccncc2)C2C(=O)CC(C)(C)CC2=O)C(=O)C1		inactive: -1.66%
O=C(NCCCN1CCCC1=O)C1CCN(S(=O)(=O)c2ccc(F)cc2)CC1	inconclusive: 28.2 µM [inhibitor, single point]	
COc1cc(CCC(=O)NCc2ccc3c(c2)OCO3)cc(OC)c1OC		inconclusive: -31.2% [inhibitor]
Cc1ccc(N=c2ssnc2Cl)cc1		inactive: 7.68%
Cc1c(Cl)cccc1NC(=O)C1C2C=CC(C2)C1C(=O)O (centres undefined)	inconclusive: 22.4 µM [inhibitor, single point]	
COc1ccc2c(c1)cc(C(=O)N/N=C/c1c(O)c(C(=O)O)cc3ccccc13)n2C	inconclusive: 112 µM [inhibitor, single point]	
COc1ccc(S(=O)(=O)N2CCC(C(=O)NCCc3ccccc3)CC2)cc1	inconclusive: 22.4 µM [inhibitor, single point]	
CCCCS(=O)(=O)N1CCCC(C(=O)Oc2ccccc2OC)C1 (centres undefined)	inconclusive: 631 µM [inhibitor, partial curve, poor fit]	
CC(=O)OC1COC(OC2C(O)C(C)OC(OC3C(OC4CCC5(C)C(CCC6(C)C5CC=C5C7CC(C)(C)CCC7(C(=O)O)CCC56C)C4(C)CO)OCC(O)C3O)C2O)C(O)C1OC(C)=O (centres undefined)		inconclusive: 214% [activator]
CC(O)c1cccc(NC(=O)Cc2cccc3ccccc23)c1 (centres undefined)		inactive: -2.93%
Cc1nn(C)c(=O)c(N)c1-c1cc(-c2ccc(Cl)c(Cl)c2)n[nH]1	inconclusive: 100 µM [inhibitor, single point]	
CCOC(=O)C(=O)Nc1ccc(F)cc1		inactive: -1.82%
COc1ccc2c(c1OC)C(=O)OC2C/C(=N\NC(N)=O)c1ccccc1 (centres undefined)	inconclusive: 15.8 µM [inhibitor, single point]	
CC(C)OCCCn1c(-c2ccco2)nc2nc3ccccc3nc21	inconclusive: 22.4 µM [inhibitor, single point]	
O=C1c2ccccc2C(=O)N1CCSc1nc2ccccc2c(=O)n1CCCN1CCOCC1	inconclusive: 20 µM [inhibitor, single point]	
CC(C)(C)[C@H]1C=C(C(=O)Nc2ccccc2)O[C@@H](OCc2ccc(CO)cc2)C1	inconclusive: 15.8 µM [inhibitor, single point]	
O=C(Nc1ccc(C(=O)N2CCCC2)cc1)c1ccc2c(c1)OCO2		inactive: -23%
O=C(O)c1cc(N=Nc2c(O)ccc3ccccc23)cc(C(=O)O)c1		inactive: -2.77%
Cc1nc(C)c(Oc2ccc(Cl)cc2Cl)c(=O)[nH]1	inconclusive: 355 µM [inhibitor, single point]	
CC(C(=O)N1CCCCC1)n1sc2ccccc2c1=O (centres undefined)		inactive: 1.19%
Cn1c(=O)c2c(nc(CN3CCN(c4ccc(F)cc4)CC3)n2CCN2CCOCC2)n(C)c1=O	inconclusive: 44.7 µM [inhibitor, partial curve, poor fit]	
